## Primary screen of a compound library

Chains of the proteins cited; added tags and fusions are not shown.
UniProt E9BF75, entry or part of it: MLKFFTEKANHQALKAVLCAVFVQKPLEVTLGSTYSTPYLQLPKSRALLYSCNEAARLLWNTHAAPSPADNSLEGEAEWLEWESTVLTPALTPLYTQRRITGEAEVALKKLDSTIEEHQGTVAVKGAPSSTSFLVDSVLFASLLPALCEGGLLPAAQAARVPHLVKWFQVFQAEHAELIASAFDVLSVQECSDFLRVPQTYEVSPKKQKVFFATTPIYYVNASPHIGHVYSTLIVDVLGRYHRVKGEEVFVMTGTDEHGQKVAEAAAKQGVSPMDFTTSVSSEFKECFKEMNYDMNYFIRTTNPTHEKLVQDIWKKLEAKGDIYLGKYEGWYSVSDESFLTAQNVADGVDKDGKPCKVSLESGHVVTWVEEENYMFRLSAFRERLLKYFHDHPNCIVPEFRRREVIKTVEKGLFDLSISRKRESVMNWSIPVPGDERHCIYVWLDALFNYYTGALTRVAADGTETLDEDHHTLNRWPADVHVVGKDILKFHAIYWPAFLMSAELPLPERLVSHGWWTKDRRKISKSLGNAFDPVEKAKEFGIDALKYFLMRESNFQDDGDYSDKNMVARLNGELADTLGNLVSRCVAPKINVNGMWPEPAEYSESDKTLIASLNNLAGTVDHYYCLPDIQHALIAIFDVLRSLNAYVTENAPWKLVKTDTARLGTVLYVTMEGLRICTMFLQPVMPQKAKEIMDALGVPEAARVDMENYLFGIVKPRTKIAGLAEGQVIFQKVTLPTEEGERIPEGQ

The values are deposited in ChEMBL (CHEMBL3988442, “University of Dundee, Small-Polar-MMV Screening Library” (2021)).

A: 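Assay on Mycobacterium tuberculosis, filed only as a heat shock assay from Cornell; the read-out is not stated. The concentration is filed as 10 mM, unlikely as a test dose, so the dose is not known. Direction is inferred from retests: higher values go with stronger inhibition. Of about 69,000 compounds tested this way, about 930 (1.4%) reached 50% or more in at least one test.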
B: 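Primary screen of methionyl-tRNA synthetase; the read-out is not stated. Target: Methionyl-tRNA synthetase (putative), Leishmania donovani (UniProt E9BF75). The test concentration is not given. The values are filed as inhibition. Size under these conditions: about 68,000 compounds, about 24 of them at 50% or above in at least one test.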
C: 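Whole-cell assay for inhibitors of Mycobacterium tuberculosis growth, labelled Cornell in the record; the read-out is not stated. The concentration is filed as 10 mM, unlikely as a test dose, so the dose is not known. Higher means stronger inhibition (inferred from two other growth screens of the library). Of about 53,000 compounds tested this way, about 900 (1.7%) reached 50% or more in at least one test.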

Results are percentages, as filed.
The record does not define 0% and 100%; most values in the screen are far below 50% and negative numbers occur (in some assays of this library far below -100).
This is an unselected part of the compounds tested.
A dash means the value is not listed here; it may have been measured.

{"compound": "[H][C@]12CC[C@]([H])(CN(S(=O)(=O)c3ccc(C#N)cc3)C1)N(CCOC)C2=O", "A": 5.607}
{"compound": "Cc1cc(C2CCCN2C(=O)NCc2cccnc2)on1", "stereo": "stereo unspecified", "A": -11.56, "B": 14.08, "C": -8.326}
{"compound": "COc1c(CNCc2cccc(CN(C)C)c2)c(C)nn1C.Cl", "A": 7.013, "C": 9.126}
{"compound": "COc1ccc(Oc2cccc(C#N)n2)cc1CN1CCCC1", "A": -16.2, "B": 24.31, "C": 10.53}
{"compound": "CC(=O)N1CCCN(CCCc2ccccc2)CC1", "A": 1.741, "B": -1.37}
{"compound": "Cn1cc(N2CC3(CCN(Cc4cccs4)CC3)OCC2=O)cn1.O=C(O)C(F)(F)F", "A": -4.949, "C": 11.34}
{"compound": "[H][C@]12CC[C@]([H])(CN(Cc3ccccn3)C1)N(C(=O)c1cc(C)nc(N)n1)C2", "A": -7.44, "C": -9.767}
{"compound": "CC(C)c1nc(CN(C)CC2CCN(CCO)CC2)no1", "A": -8.648, "B": 11.96}
{"compound": "Cc1cccc(OC2(C(=O)O)CCN(C(=O)CCc3ccco3)CC2)c1", "A": -23.48, "B": 3.47, "C": -35.03}
{"compound": "CC(C)N(C)C(=O)c1ccc(Cl)c(NC(=O)CCN2C(=O)CCC2=O)c1", "A": -1.487, "B": 13.23, "C": 11.07}
{"compound": "Cc1ncsc1CN1CC[C@H]2OCC[C@@]2(C(=O)NC(C)C)C1", "B": 2.941}
{"compound": "CCc1nnc2n1CCN(Cc1cc(Cl)c3c(c1)OCCO3)C2", "A": 4.506, "B": 20.63}
{"compound": "O=C(O)C(F)(F)F.O=C(O)C(F)(F)F.[H][C@]12CCN(C(=O)C3CC3)CC[C@@]1([H])S(=O)(=O)CCN2Cc1cccnc1", "A": -20.85}
{"compound": "O=C(Cc1ccc2c(c1)CCCC2)Nc1cccnc1N1CCSCC1", "A": -24.53, "B": 4.482, "C": 5.818}
{"compound": "Cc1nccn1CC1CCN(C(=O)c2cccs2)CC1", "A": -11.35, "B": 18.1, "C": 1.143}
{"compound": "Cc1ccc(OCCN(C)Cc2cscn2)cc1", "A": -11.63, "B": 9.948, "C": 29.45}
{"compound": "COc1cc(F)ccc1N(C)Cc1ccccn1", "A": -7.65, "B": 8.333, "C": 4.288}
{"compound": "Cc1nc(C)n(CC2CCCN2CCCc2ccccc2)n1", "stereo": "stereo unspecified", "A": 12.94, "B": 19.21, "C": 24.6}
{"compound": "[H][C@]12CC[C@]([H])(CN(Cc3cc(=O)c4cc(C)ccc4[nH]3)C1)N(CCOC)C2", "A": 51.84, "C": -11.1}
{"compound": "CC(C)(C)c1oc(C(N)=O)cc1CN1CCOC(C(F)(F)F)C1", "stereo": "stereo unspecified", "A": -22.79, "B": 6.211}
{"compound": "COc1cc(C(C)=O)ccc1OCCNCc1ccco1", "B": 0.9804}
{"compound": "COCc1cc(N2CCOC(c3ccc(Cl)cc3)C2)ncn1", "stereo": "stereo unspecified", "A": -14.94, "B": 17.98, "C": 42.52}
{"compound": "O=C(c1ccno1)N1CCCC(c2ncncc2-c2ccncc2)C1", "stereo": "stereo unspecified", "A": -2.124, "B": 5.178, "C": -8.51}
{"compound": "Cc1nc2sccn2c1C(=O)N1CCc2[nH]cnc2C1", "A": -22.04, "B": 11.5}
{"compound": "Cc1ccc(OCC(C)NS(=O)(=O)N(C)C)cc1", "stereo": "stereo unspecified", "A": -24.13, "B": 6.522, "C": -2.442}
{"compound": "CSCCC(NC(=O)c1ccc2ccccc2n1)C(=O)N(C)C", "stereo": "stereo unspecified", "A": 13.65, "B": -3.476}
{"compound": "CN(C)S(=O)(=O)N1CCC[C@]2(C[C@@H](Oc3ncccc3F)CO2)C1.O=C(O)C(F)(F)F", "A": -8.336, "C": 31.71}
{"compound": "COCCCn1ccc(NC(=O)NCCCn2ccnc2)n1", "A": 18.96, "B": 4.326, "C": 13.34}

For reference, 3 entries once more:

compound	A	B	C
O=C(c1ccno1)N1CCCC(c2ncncc2-c2ccncc2)C1 (stereo unspecified)	-2.124	5.178	-8.51
COc1c(CNCc2cccc(CN(C)C)c2)c(C)nn1C.Cl	7.013	-	9.126
[H][C@]12CC[C@]([H])(CN(Cc3ccccn3)C1)N(C(=O)c1cc(C)nc(N)n1)C2	-7.44	-	-9.767